PubChem BioAssay AID1224830 – NIAID | 2016

Screen: 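Genes whose knock-down alters the TNF-alpha reporter response to LPS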 (primary screen)
System: human THP-1 monocytic leukaemia cells, TNF dual-luciferase reporter clone, PMA-differentiated to macrophage-like cells
Reagent: siRNA pool against human genes, 50 nM
Timing: LPS for 4 h, given about 3 days after siRNA transfection
Challenge: bacterial LPS (TLR4 ligand), 10 ng/ml
Read-out: 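Ratio of firefly to renilla light, scaled to the plate median and expressed as a robust z-score per replicate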
Reading the numbers: TNF reporter robust z-score: higher = stronger TNF reporter response to LPS
Call rule: 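Each well counts as active if its z-score is over 2.8 or under -1.5; controls are left without a call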
Here is one part, drawn at random, of about 18,000 reagents tested. In the full data, about 2,900 (16%) are marked active. 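Calls are made per well; low scores hint the gene aids the LPS response, high scores that it dampens it.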 Repeated entries: four replicate wells of each siRNA pool.

Depletion of PCDHAC1 (GeneID 56135) gave: TNF reporter robust z-score -0.64; inactive.
PCDHAC1 (GeneID 56135) scored TNF reporter robust z-score -1.05; inactive.
After knock-down of PCDHAC1 (GeneID 56135) the results were TNF reporter robust z-score -0.79; inactive.
For PNMA2 (GeneID 10687) the deposit lists TNF reporter robust z-score -0.1; inactive.
Against PNMA2 (GeneID 10687), the entry reads TNF reporter robust z-score -0.45; inactive.
Silencing of PNMA2 (GeneID 10687) resulted in: TNF reporter robust z-score 0.42; inactive.
PNMA2 (GeneID 10687) gave TNF reporter robust z-score -0.07; inactive.
Depletion of LDB3 (GeneID 11155) came out at: TNF reporter robust z-score -0.81; inactive.
LDB3 (GeneID 11155) scored TNF reporter robust z-score 0.2; inactive.
For LDB3 (GeneID 11155), the entry reads TNF reporter robust z-score 1.32; inactive.
With knock-down of LDB3 (GeneID 11155), the record shows TNF reporter robust z-score -0.6; inactive.
For IL6 (GeneID 3569) the deposit lists TNF reporter robust z-score -0.63; inactive.
For IL6 (GeneID 3569) the deposit lists TNF reporter robust z-score -0.66; inactive.
Depletion of IL6 (GeneID 3569) resulted in: TNF reporter robust z-score -0.77; inactive.
For IL6 (GeneID 3569), the values are TNF reporter robust z-score -0.25; inactive.
With knock-down of MRPL43 (GeneID 84545), the screen gave TNF reporter robust z-score -0.6; inactive.
Depletion of MRPL43 (GeneID 84545) came out at: TNF reporter robust z-score -0.24; inactive.
Knock-down of MRPL43 (GeneID 84545) came out at: TNF reporter robust z-score -0.04; inactive.
Against MRPL43 (GeneID 84545) the deposit lists TNF reporter robust z-score 0.44; inactive.

Entries listed so far whose gene name begins with L or l (4):
LDB3 (GeneID 11155) | TNF reporter robust z-score = -0.81; Call = inactive
LDB3 (GeneID 11155) | TNF reporter robust z-score = 0.2; Call = inactive
LDB3 (GeneID 11155) | TNF reporter robust z-score = 1.32; Call = inactive
LDB3 (GeneID 11155) | TNF reporter robust z-score = -0.6; Call = inactive
